Values quoted from earlier work, collected in patent US5116815A, “PF 1022 substance, method of treating helminthic parasitic infection and anthelmintic composition” (Meiji Seika Kaisha Ltd., priority 1989, dated 1992).
At least one structure is not confirmed: it was looked up by name or label, or the drawing left a doubt.

Conditions: cited from earlier work

For `CC(C)C[C@H]1C(=O)O[C@H](C(C)C)C(=O)N(C)[C@@H](CC(C)C)C(=O)O[C@H](C(C)C)C(=O)N(C)[C@@H](CC(C)C)C(=O)O[C@H](C(C)C)C(=O)N(C)[C@@H](CC(C)C)C(=O)O[C@H](C(C)C)C(=O)N1C` [bassianolide], the anthelmintic activity is given as “no anthelmintic activity”.
